Cell number change and AC50 data for 61 compounds are collected here from PubChem BioAssay AID2685 (National Center for Advancing Translational Sciences (NCATS), 2010).

The nature of the test: qHTS Assay for Lipid Storage Modulators in Drosophila S3 Cells.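 As to Cell number change: cells counted by Cell Tracker Red CMTPX staining in the red channel.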 The note with it: BODIPY lipid droplet fluorescence, 18-24 h; for cell number change: measured here: cell count max response, cells fed with added oleic acid. In outline: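 Drosophila S3 cells loaded with oleic acid (400 uM, as added) and compounds at several concentrations; lipid droplets imaged by 488-nm laser-scanning cytometry, 500–530 nm intensity and object ratio to cell channel. Percent activity normalized to 20 uM Triacsin C.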
Background: qHTS replaces the single test concentration by a dilution series.

[1] abbreviates: measured here: cell number channel AC50, cells fed with added oleic acid.
[2] abbreviates: measured here: lipid fluorescence (Fed channel) AC50, cells fed with added oleic acid.

The list shows a part of the results. Further columns of the screen follow, without active or inactive calls. Compounds called inactive in the main read-out are mostly missing here. Words in brackets tell the shape of the fitted curve; partial curves, single points and poor fits give uncertain potencies.

On to `COC(=O)c1c(NC(=O)COC(=O)c2ccc(O)cc2)sc2c1CCCCC2`, for which the cell number change is -77.8%. Also, the AC50 under setting [1] is 23.1 µM [falling, partial curve, poor fit]. In addition, the AC50 under setting [2] was 20.6 µM [falling, partial curve, poor fit].
On to `CC(=O)C1=C(C)NC(SCC(=O)c2ccc(F)cc2)=C(C#N)C1CC(C)C` (stereo not drawn), for which the AC50 is 0.13 µM [rising, full curve, poor fit] under setting [1] and 3.66 µM [rising, full curve] under setting [2].
Turning to `CCN(CC)CCN1C(=O)C(=O)/C(=C(/O)c2ccc(S(=O)(=O)N3CCOCC3)cc2)C1c1ccc(C(C)C)cc1` (stereo not drawn), the cell number change was found to be 22.7%.
As for `O=C(CSc1nnc(NC(=O)c2ccc(F)cc2F)s1)NC1CC1`, the cell number change came to 18.4%. For the same compound, under setting [2], the AC50 was 8.2 µM [rising, partial curve].
As to `Cc1cc(C)n2nc(C(=O)N/N=C/c3ccccc3C)nc2n1`, the cell number change is -22%. Further, the AC50 under setting [2] was 18.4 µM [falling, partial curve].
On to `CCN(C(=O)C1CCCN(c2ncnc3c2nc2n3CCCCC2)C1)c1cccc(Cl)c1` (stereo not drawn), for which the cell number change was -30.6%. For the same compound, the AC50 under setting [1] was 0.411 µM [falling, full curve, poor fit].
As for `CCCCCCN1C2=NCCN2c2ccccc21`, the cell number change was 15.2%. Further, the AC50 under setting [2] is 6.51 µM [rising, single point].
Turning to `Cc1cc(C)n(Cc2n[nH]c(=S)n2Cc2ccccc2)n1`, the cell number change turned out to be 149%.
`Cc1ccc(O)c(NC(=O)c2onc(C)c2Cl)c1`: the AC50 under setting [2] is 29.1 µM [falling, single point].
As for `CC(=O)Nc1cccc(OCC(=O)Nc2ccccc2)c1`, the cell number change was -29.4%. Besides, the AC50 under setting [2] is 18.4 µM [rising, single point].
Turning to `COc1ccc(-n2c(SC3CCOC3=O)nc3ccccc32)cc1` (stereo not drawn), the cell number change came to 21.6%. In addition, the AC50 under setting [2] is 0.146 µM [rising, full curve, poor fit].
For `COc1cccc(-n2c(Cn3nc(C(F)F)cc3C(F)F)n[nH]c2=S)c1`, the cell number change is 53.7%. Besides, the AC50 under setting [1] was 29.1 µM [rising, single point]. Besides, the AC50 under setting [2] is 0.146 µM [rising, full curve, poor fit].
Turning to `CCCCNC(=O)c1ccc2c(c1)S(=O)(=O)c1ccccc1C2=O`, the cell number change worked out at 17.8%. Besides, under setting [2], the AC50 was 11.6 µM [rising, partial curve].
On to `COc1ccc(NC(=O)CSc2nnc(-c3ccccc3F)n2C2CC2)cc1S(N)(=O)=O`, for which the AC50 under setting [1] was 0.13 µM [rising, full curve] and the AC50 under setting [2] is 0.116 µM [rising, full curve, poor fit].
Take `O=C(c1cccc2nccnc12)N1CCCC(Nc2ccc(F)c(F)c2)C1` (stereo not drawn): the cell number change turned out to be 13.5%. Moreover, under setting [2], the AC50 is 29.1 µM [rising, single point].
Turning to `CC(C)c1ccc(NC(=O)N(CCc2nc3ccccc3[nH]2)C2CCCC2)cc1`, the cell number change was determined as 4.55%.
Turning to `Cn1c(-c2ccc(C=O)s2)nc2c3ccccc3c3ccccc3c21`, the AC50 under setting [1] is 0.651 µM [rising, single point] and the AC50 under setting [2] is 0.58 µM [rising, single point].
Regarding `CCOC(=O)CSc1nnc([C@@H](NC(=O)OC(C)(C)C)C(C)C)o1`, the cell number change stood at 3.47%. Moreover, the AC50 under setting [1] is 6.51 µM [rising, single point].
Turning to `CC(C)CCNC(=O)C1CCN(S(=O)(=O)c2ccc3nc4c(c(C(=O)O)c3c2)CCCCC4)CC1`, the AC50 under setting [1] is 1.84 µM [falling, partial curve].
Regarding `COc1ccc(-n2c(C(C)(C)C)csc2=Nc2c(C)n(C)n(-c3ccccc3)c2=O)cc1`, the cell number change is -4.74%. Further, the AC50 under setting [2] is 0.326 µM [falling, full curve, poor fit].
`CCC(C)NC(=O)c1ccccc1NS(=O)(=O)c1ccc(OC)c(OC)c1` (stereo not drawn): the cell number change is -1.97%. In addition, the AC50 under setting [2] is 32.6 µM [rising, single point].
Regarding `Cc1ccc(/C=C/C(=O)c2ccc(N3CCOCC3)cc2)s1`, under setting [2], the AC50 is 0.517 µM [rising, partial curve, poor fit].
In the case of `Cc1cc2cc(CNC(=O)COc3ccccc3)ccc2n1C`, the cell number change is 16.3%.
On to `Cc1ccc(S(=O)(=O)N(CC(=O)O)Cc2ccccc2F)cc1`, for which the AC50 under setting [2] is 2.06 µM [falling, partial curve].
Regarding `Cc1ccc(NC(=O)c2ccc(OCc3c(C)noc3C)cc2)nc1`, the cell number change amounted to 1.17%. Further, the AC50 under setting [2] is 0.184 µM [rising, full curve, poor fit].
Take `CCC1(C)Cc2ccccc2-c2nc3n(c(=O)c21)CCCCC3` (stereo not drawn): under setting [1], the AC50 is 0.58 µM [falling, single point].
With `O=C(COC(=O)c1ccccc1Nc1cccc(C(F)(F)F)c1)NCc1ccco1`, the AC50 under setting [2] is 0.184 µM [falling, full curve, poor fit].
As for `CC(C)N(Cc1nccn1C)C(=O)c1ccc(OC2CCN(C(=O)C3CC3)CC2)cc1`, the cell number change was -1.56%. For the same compound, the AC50 under setting [2] is 3.66 µM [falling, full curve, poor fit].
Turning to `Cc1ccc(N2C(=O)NC(NC(=O)C3CC3)(C(F)(F)F)C2=O)cc1` (stereo not drawn), the AC50 under setting [2] is 3.66 µM [rising, single point].
As to `Cc1nc(CNC(=O)CC2C(=O)NCCN2Cc2ccoc2)nc2c1CCCC2` (stereo not drawn), the cell number change is -9.03%. In addition, the AC50 under setting [1] was 0.00517 µM [falling, full curve, poor fit].
With `CCOC(=O)c1ccccc1NC(=O)Nc1ccc(OC)c(OC)c1`, under setting [2], the AC50 was 0.82 µM [falling, single point].
Turning to `Cc1c2cnn(CC(=O)Nc3c(F)c(F)cc(F)c3F)c(=O)c2c(C)n1Cc1ccc(F)cc1`, the cell number change was 26.2%.
As to `O=C(CN1CCN(Cc2ccccc2)CC1)N/N=C/c1cccs1`, the cell number change came to 8.45%. The AC50 under setting [1] is 3.66 µM [falling, single point]. Under setting [2], the AC50 is 4.11 µM [falling, single point].
On to `CC1CC1C(=O)OCC(=O)NC(=O)c1ccccc1` (stereo not drawn), for which the cell number change came out at 0.226%. Besides, the AC50 under setting [2] is 0.651 µM [rising, partial curve].
Turning to `CCOC(=O)[C@H](CCc1ccccc1)N[C@@H](C)C(=O)N1C(C(=O)O)C[C@@H]2CCC[C@@H]21` (stereo partly drawn), the cell number change was 33.5%. In addition, the AC50 under setting [1] was 13 µM [rising, single point]. Also, under setting [2], the AC50 is 9.2 µM [rising, partial curve].
For `CCOc1cc(-c2nc(-c3ccncc3)no2)cc(OCC)c1OCC`, the cell number change is 2.92%. In addition, the AC50 under setting [2] was 0.13 µM [rising, full curve, poor fit].
In the case of `C#CC[N+](CC)(CC)CC#Cc1cccc(Cl)c1`, the cell number change stood at 0.64%. The AC50 under setting [2] was 18.4 µM [falling, single point].
Take `O=C(CN1C(=O)NC2(CCCC2)C1=O)OCc1ccc(Cl)cc1Cl`: the cell number change is -75%. The AC50 under setting [1] is 29.1 µM [falling, single point]. The AC50 under setting [2] was 29.1 µM [falling, single point].
As to `CN(C(=O)COC(=O)c1ccc([N+](=O)[O-])cc1)c1ccccc1`, the cell number change stood at 40.2%.
As to `COc1cc(C2C(C(=O)c3ccco3)=C(O)C(=O)N2Cc2ccccc2)ccc1O` (stereo not drawn), the cell number change was -20.5%.
As to `CCN(CC)CCNC(=O)c1ccc(NC(=O)c2ccc(F)cc2)cc1`, the cell number change was -31.8%. Moreover, the AC50 under setting [1] was 0.326 µM [falling, full curve]. For the same compound, under setting [2], the AC50 was 0.326 µM [falling, full curve, poor fit].
As to `COc1ccccc1CC(=O)N1CCN(c2cccc(Cl)c2)CC1`, the cell number change worked out at 18.1%.
Regarding `COc1cccc(NC(=O)CN(C)C(=O)CN2C(=O)NC3(CCCC3)C2=O)c1`, the cell number change amounted to 7.3%. Further, the AC50 under setting [2] was 11.6 µM [rising, partial curve, poor fit].
For the compound `Cc1ccc2nc(C)cc(C(=O)N3CCCC(N4CCN(c5ccccc5C)CC4)C3)c2c1` (stereo not drawn), the AC50 under setting [2] was 0.112 µM [rising, full curve, poor fit].
`O=C1NCCCCC1NS(=O)(=O)c1cccc(C(F)(F)F)c1` (stereo not drawn): the cell number change came out at 4.23%.
`Cc1cc(C)c(S(=O)(=O)Nc2ccc3[nH]c(=O)[nH]c3c2)c(C)c1`: the cell number change was -1.83%. In addition, the AC50 under setting [1] is 0.326 µM [rising, partial curve].
In the case of `Cc1noc2ncnc(Oc3ccccc3Cl)c12`, the cell number change is -30.4%.
For the compound `O=C1N[C@@H](Cc2cnc[nH]2)C(=O)N2CCC[C@@H]12`, the cell number change is -14.4%. The concentration at half-maximal activity (AC50) under setting [1] is 0.0517 µM [falling, full curve, poor fit]. Also, under setting [2], the AC50 is 29.1 µM [rising, single point].
For the compound `COc1ccccc1CN(C)C(=O)CSc1nnc(C2CC2)n1C1CC1`, the cell number change is -7.51%.
Take `COc1ccc2oc(C(=O)OCC(=O)NCc3ccco3)c(C)c2c1`: the cell number change is -0.905%. Besides, under setting [2], the AC50 was 29.1 µM [falling, single point].
As to `COc1cc(CNC2CCC(C)C2)cc(OC)c1` (stereo not drawn), the cell number change is -17.1%.
In the case of `COc1cccc(NC(=O)c2ccccc2NS(C)(=O)=O)c1`, the AC50 under setting [2] is 0.13 µM [falling, full curve, poor fit].
As for `CCCCOC(=O)C(C#N)c1nc2ccccc2nc1N1CCOCC1` (stereo not drawn), the cell number change is -27.6%.
`COC(=O)c1ccc(CNC(=O)CNc2cc(C(F)(F)F)ccc2N2CCOCC2)cc1`: the cell number change is -22.5%. Also, the AC50 under setting [2] was 0.00517 µM [rising, full curve, poor fit].
On to `O=C(NNC(=S)NCc1ccccc1)c1ccc2c(c1)OCO2`, for which the cell number change is -60.7%. Moreover, the AC50 under setting [1] is 29.1 µM [falling, single point]. In addition, under setting [2], the AC50 is 29.1 µM [falling, single point].
For `CNc1nc(C)c(C(=O)OCc2ccccc2)s1`, the cell number change amounted to 7.94%. Also, the AC50 under setting [2] was 2.06 µM [rising, full curve].
In the case of `Cc1ccc(S(=O)(=O)N2CCC3(CC2)OCCO3)cc1`, the cell number change came to 6.44%. Also, under setting [2], the AC50 was 29.1 µM [rising, single point].
Regarding `CCOc1ccc(NC(=O)CN(C)C(=O)C(C)N2C(=O)c3ccccc3C2=O)cc1OCC` (stereo not drawn), the cell number change is -2.98%. Besides, the AC50 under setting [2] was 11.6 µM [rising, partial curve, poor fit].
Turning to `COc1cccc(OCC(=O)Nc2ccccc2-c2ccccc2)c1`, the cell number change was 19.8%. The AC50 under setting [2] was 1.84 µM [rising, partial curve].
Regarding `Cc1ccc(-c2ccc(S(=O)(=O)Nc3cccnc3)cc2)cc1`, the cell number change was found to be 17.6%. In addition, under setting [2], the AC50 is 29.1 µM [falling, single point].
As to `CCn1c(=NC(=O)CCS(=O)(=O)c2ccccc2)sc2cccc(OC)c21`, the cell number change is -33.2%. For the same compound, the AC50 under setting [1] was 8.2 µM [falling, partial curve, poor fit]. The AC50 under setting [2] is 29.1 µM [falling, single point].

For orientation: AC50 means the concentration at which the activity in the assay is half-maximal. Low values mean activity at low concentration, high ones activity only at high concentration.
